One assay has as its target T1, GST-GDI (bovine) (UniProt P21856).
T1 sequence: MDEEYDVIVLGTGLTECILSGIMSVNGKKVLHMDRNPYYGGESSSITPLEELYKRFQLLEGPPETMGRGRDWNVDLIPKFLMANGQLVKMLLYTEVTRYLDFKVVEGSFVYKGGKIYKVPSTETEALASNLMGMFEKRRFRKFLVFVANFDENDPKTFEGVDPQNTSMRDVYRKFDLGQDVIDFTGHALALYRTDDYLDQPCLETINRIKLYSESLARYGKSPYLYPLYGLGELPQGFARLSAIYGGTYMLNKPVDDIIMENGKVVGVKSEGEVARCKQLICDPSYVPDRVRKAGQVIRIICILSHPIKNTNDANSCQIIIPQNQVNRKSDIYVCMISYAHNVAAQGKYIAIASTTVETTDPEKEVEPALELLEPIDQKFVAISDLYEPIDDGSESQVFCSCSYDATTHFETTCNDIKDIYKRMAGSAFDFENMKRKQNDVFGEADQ
The experiment in a line: pull-down; Rab5 capture assay: 1 µM GST-GDI with 20 µg purified early endosomes, 20 min 30°C in EEB with 0.3 mM ATP, 3 mM GDP, with or without cytosol; endosomes removed on a sucrose gradient; GST-GDI recovered on glutathione-Sepharose beads; anti-Rab5 blot; only the target purified.

Assay [1] concerns the target T2, GST-TXNL1 (UniProt O43396).
T2 sequence: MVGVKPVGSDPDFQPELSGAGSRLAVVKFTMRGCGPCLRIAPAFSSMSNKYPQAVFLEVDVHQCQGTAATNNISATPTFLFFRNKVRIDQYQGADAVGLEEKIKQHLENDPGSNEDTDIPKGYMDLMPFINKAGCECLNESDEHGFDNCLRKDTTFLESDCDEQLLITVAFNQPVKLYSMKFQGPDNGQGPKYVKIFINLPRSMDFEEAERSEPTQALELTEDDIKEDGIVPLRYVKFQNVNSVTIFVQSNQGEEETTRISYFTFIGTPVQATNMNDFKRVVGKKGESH
Description: pull-down; pre-cleared rat liver cytosol with 60 nM GST fusion proteins, 2 h in HB; fusion proteins not pre-oxidized (untreated or pre-reduced with 1 mM DTT); glutathione-Sepharose beads, washed with EEB; western blotting; only the target purified.

Assay [2] concerns the target T3, GST-TXNL1^C34,37S (UniProt O43396).
T3 sequence: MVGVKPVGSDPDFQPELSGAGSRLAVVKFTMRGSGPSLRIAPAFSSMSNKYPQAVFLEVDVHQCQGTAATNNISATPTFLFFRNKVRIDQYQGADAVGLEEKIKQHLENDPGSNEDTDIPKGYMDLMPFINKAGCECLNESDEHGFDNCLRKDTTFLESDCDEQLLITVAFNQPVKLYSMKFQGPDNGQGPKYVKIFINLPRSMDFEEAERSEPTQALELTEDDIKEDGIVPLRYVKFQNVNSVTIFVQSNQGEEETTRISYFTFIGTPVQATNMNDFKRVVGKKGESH
The assay is described as above.

Assay [3] concerns the target T2, GST-TXNL1. Description: pull-down; pre-cleared rat liver cytosol with 60 nM GST fusion proteins, 2 h in HB; fusion proteins pre-oxidized with 10 mM H2O2 (15 min, 25°C); glutathione-Sepharose beads, washed with EEB; western blotting; only the target purified. (In general: Immunoblotting shows a protein as a band on a membrane.)
The target of assay [4] is T3, GST-TXNL1^C34,37S. Described as above.
In a further assay the target is T4, GST-TXNL1-C (UniProt O43396).
T4 sequence: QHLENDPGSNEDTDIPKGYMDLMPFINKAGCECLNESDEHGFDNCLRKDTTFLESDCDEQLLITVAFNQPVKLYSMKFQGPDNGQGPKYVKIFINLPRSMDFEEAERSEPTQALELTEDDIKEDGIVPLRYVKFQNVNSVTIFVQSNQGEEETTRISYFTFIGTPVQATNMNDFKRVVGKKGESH
The experiment in a line: pull-down; pre-cleared rat liver cytosol with 60 nM GST fusion proteins, 2 h in HB; fusion proteins not pre-oxidized (untreated or pre-reduced with 1 mM DTT); glutathione-Sepharose beads, washed with EEB; western blotting; only the target purified.

Another assay has as its target T5, GST-TXNL1-N (UniProt O43396).
T5 sequence: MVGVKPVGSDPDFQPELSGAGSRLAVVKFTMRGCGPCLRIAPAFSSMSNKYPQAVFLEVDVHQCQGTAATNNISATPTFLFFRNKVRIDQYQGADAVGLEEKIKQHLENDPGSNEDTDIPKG
The assay is described as above.

The target of assay [5] is endogenous p38MAPK (rat liver cytosol) (rat (endogenous in rat liver)). The experiment in a line: SEC; rat liver cytosol precipitated in 30% (NH4)2SO4, fractionated on a Superose 12 column; fractions analysed by western blotting. (In general: SEC sorts molecules by how far they enter the pores of the column.)

No constants are given. Whether binding was seen depends on the method and setting. For part of these data: Binding can be weak; no strength is given. For part of these data: In cells and extracts the contact can be indirect. For part of these data: Tags and fused reporters may be left off the sequences shown.

On to early endosomal Rab5, for which the binding result with GST-GDI (bovine) is recorded as “binds”.
For cytosolic Rab5 (rat liver cytosol), the binding entry with GST-TXNL1 [1] was “no binding (only without pre-oxidation by H2O2)”; with GST-TXNL1^C34,37S [2] it was “no binding (only without pre-oxidation by H2O2)”; with GST-TXNL1 [3] it was “binds”; with GST-TXNL1^C34,37S [4], “binds”.
Regarding cytosolic GDI (rat liver cytosol), the binding entry in the assay with GST-TXNL1-C is listed as “no binding (tested: 60 nM GST fusion protein)”; with GST-TXNL1 [1], “binds”; with GST-TXNL1-N, “no binding (tested: 60 nM GST fusion protein)”; in the assay with GST-TXNL1^C34,37S [2] it was “binds”; in the assay with GST-TXNL1 [3], “binds”; in the assay with GST-TXNL1^C34,37S [4], “binds”.

B1: endogenous TXNL1 (rat liver cytosol) (protein, UniProt Q920J4 1-289)
chain: MVGVKPVGSDPDFQPELSGAGSRLAVVKFTMRGCGPCLRIAPAFSSMSNKYPQAVFLEVDVHQCQGTAATNNISATPTFLFFRNKVRIDQYQGADAVGLEEKIKQHLENDPGSNEDTDIPKGYMDLMPFINKAGCECLNESDEHGFDNCLRKDLSFLESDCDEQLLITVAFNQPVKLYSMKFQGPDNGQGPKYVKIFINLPRSMDFEEAERSEPTQALELTEDDIKEDGIVPLRYVKFQNVNSVTLFVQSNQGEEETTRISYFTFIGTPVQATNMNDFKRVVGKKGESH
For the molecule B1, in assay [5], the binding result was “binds”.

For the origin of these results see PMC2043495.
